The series in a line: general procedure: Fmoc solid-phase peptide synthesis. The note with it: conjugation step; for final HPLC purity: 254 nm.

One purity is given for all peptides; the source may state it once. Strings that start with PEPTIDE1 are HELM notation: dots part the residues, brackets hold end groups and non-standard residues.

For the substance “DBCO-2B1W4, 2B1W4 or DBCO-(Glu(2B)1(Trp)4)”, the conjugation yield came out at 55.4% yield and the “final HPLC purity” value is given as above 95% AUC at 254 nm.
With “DBCO-2B2W3, 2B2W3 or DBCO-(Glu(2B)2(Trp)3)”, the conjugation yield is 62.5% yield and the “final HPLC purity” value is recorded as above 95% AUC at 254 nm.
Take “DBCO-2B2W8, 2B2W8 or DBCO-(Glu(2B)2(Trp)8)”: the conjugation yield is recorded as 16.3% yield and the “final HPLC purity” value was above 95% AUC at 254 nm.
On the same counts, the results for “DBCO-2B3W2, 2B3W2 or DBCO-(Glu(2B)3(Trp)2)” are 50.6% yield and above 95% AUC at 254 nm.
For the substance “DBCO-2B4W6, 2B4W6 or DBCO-(Glu(2B)4(Trp)6)”, the “final HPLC purity” value is recorded as above 95% AUC at 254 nm.
Still for that read-out and setting: for “DBCO-2B6W4, 2B6W4 or DBCO-(Glu(2B)6(Trp)4)” the value was above 95% AUC at 254 nm.
Take “DBCO-2BXy1W4, 2BXy1W4 or DBCO-(Glu(2BXy)1(Trp)4)”: the conjugation yield worked out at 73.3% yield and the “final HPLC purity” value is given as above 95% AUC at 254 nm.
“DBCO-2BXy3W2, 2BXy3W2 or DBCO-(Glu(2BXy)3(Trp)2)”: the conjugation yield is reported as 38.1% yield.
Regarding “DBCO-(2BGWGWG)5, 2B5W10G15 or DBCO-(Glu(2B)5(Trp)10(Gly)15) (KGWGWGKGWGWGKGWGWGKGWGWGKGWGWG; DBCO; 2B-modified Glu residues; MOD_RES (1)..(1) 1-(4-aminobutyl)-2-butyl-1H-imidazo[4,5- c]quinolin-4-amine Lys; MOD_RES (7)..(7) 1-(4-aminobutyl)-2-butyl-1H-imidazo[4,5- c]quinolin-4-amine Lys; MOD_RES (13)..(13) 1-(4-aminobutyl)-2-butyl-1H-imidazo[4,5- c]quinolin-4-amine Lys; MOD_RES (19)..(19) 1-(4-aminobutyl)-2-butyl-1H-imidazo[4,5- c]quinolin-4-amine Lys; MOD_RES (25)..(25) 1-(4-aminobutyl)-2-butyl-1H-imidazo[4,5- c]quinol)”, the conjugation yield is 26% yield.
Take “DBCO-(GG2B)5, 2B5G10 or DBCO-(Glu(2B)5(Gly)10) (GGEGGEGGEGGEGGE; DBCO; 2B-modified Glu residues; MOD_RES (3)..(3) 1-(4-aminobutyl)-2-butyl-1H-imidazo[4,5- c]quinolin-4-amine Glu; MOD_RES (6)..(6) 1-(4-aminobutyl)-2-butyl-1H-imidazo[4,5- c]quinolin-4-amine Glu; MOD_RES (9)..(9) 1-(4-aminobutyl)-2-butyl-1H-imidazo[4,5- c]quinolin-4-amine Glu; MOD_RES (12)..(12) 1-(4-aminobutyl)-2-butyl-1H-imidazo[4,5- c]quinolin-4-amine Glu; MOD_RES (15)..(15) 1-(4-aminobutyl)-2-butyl-1H-imidazo[4,5- c]quinolin)”: the conjugation yield turned out to be 36.2% yield and the “final HPLC purity” value is above 95% AUC at 254 nm.
Mal-2B3W2 or Mal-(Glu(2B)3(Trp)2) showed a conjugation yield of 66.7% yield.
Take “PEPTIDE1{[DBCO].[Glu(2B)].[Glu(2B)].[Glu(2B)].[Glu(2B)].[Glu(2B)].[am]}$$$$V2.0”: the conjugation yield is given as 62.6% yield and the “final HPLC purity” value was above 95% AUC at 254 nm.
Take “PEPTIDE1{[DBCO].[Glu(2BXy)].[Glu(2BXy)].[Glu(2BXy)].[Glu(2BXy)].[Glu(2BXy)].[am]}$$$$V2.0”: the conjugation yield is reported as 63.4% yield and the “final HPLC purity” value is above 95% AUC at 254 nm.

For the origin of these results see patent US12370255B2 (Barinthus Biotherapeutics North America, Inc., priority 2017, dated 2025).
